Assay results reported in PMC10339064.
No constants are given. Whether binding was seen depends on the method and setting. In cells and extracts the contact can be indirect. Some binding calls cover weakened binding; strength is not graded here.

Chains of the proteins cited; added tags and fusions are not shown.
UniProt Q12778: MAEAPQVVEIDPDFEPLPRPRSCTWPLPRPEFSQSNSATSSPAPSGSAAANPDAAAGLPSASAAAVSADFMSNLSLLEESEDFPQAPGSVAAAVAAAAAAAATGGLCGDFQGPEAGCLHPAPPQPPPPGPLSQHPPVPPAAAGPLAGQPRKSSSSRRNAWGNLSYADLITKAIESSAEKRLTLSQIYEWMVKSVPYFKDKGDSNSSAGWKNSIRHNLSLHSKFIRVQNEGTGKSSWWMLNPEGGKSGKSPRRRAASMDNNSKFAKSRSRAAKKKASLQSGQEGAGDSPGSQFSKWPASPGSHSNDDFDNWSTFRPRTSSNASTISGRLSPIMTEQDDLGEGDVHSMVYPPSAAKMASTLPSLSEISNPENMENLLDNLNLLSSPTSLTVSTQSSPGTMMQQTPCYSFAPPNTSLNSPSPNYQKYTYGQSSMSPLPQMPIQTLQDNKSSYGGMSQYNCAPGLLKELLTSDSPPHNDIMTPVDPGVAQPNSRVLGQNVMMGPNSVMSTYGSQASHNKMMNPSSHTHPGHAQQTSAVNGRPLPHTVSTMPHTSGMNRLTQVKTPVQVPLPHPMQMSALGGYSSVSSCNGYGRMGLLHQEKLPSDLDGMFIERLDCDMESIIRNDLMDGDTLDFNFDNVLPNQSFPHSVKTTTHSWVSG

Biological target: Forkhead box O1 (FoxO1), FLAG-tagged (UniProt Q12778)
Experiment: co-IP; FLAG M2 magnetic beads on lysates of transfected HEK293 cells; lysis in buffer A (50 mM Tris-HCl pH 7.4, 150 mM NaCl, 1% NP-40, 1 mM EDTA, 10 mM NaF, 2 mM Na3VO4), IP in buffer A with 0.5% NP-40, 2 h at 4 °C (4 h or 8 h with malonyl-CoA, other acyl-CoAs (500 μM) or NADH added to the lysates); some cells treated with lactate/pyruvate ratios (1 h) or pemafibrate/fenofibrate (24 h); eluted with 3x FLAG peptide, Western blot

binding: binds
Substance: C-terminal binding protein 2 (CtBP2), wild type, HA-tagged (from UniProt P56545 1-445)
